According to PubChem BioAssay AID2417 (National Center for Advancing Translational Sciences (NCATS), 2010):
Out of some 140,000 compounds screened, about 4,300 (3.1%) were called active. Inconclusive results, whose numbers are uncertain, are shown with a selection of clear calls.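 The calls were made as follows: active = readout at or below -70, meaning at least 70% loss of cells showing the perinucleolar compartment, a nuclear body marking cancer cells; inconclusive = readout between -30 and a set limit; inactive = the rest.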

test: High Content Assay for Compounds that inhibit the Assembly of the Perinucleolar Compartment; details: PC3M PTB-GFP, PNC prevalence imaging, 16 h; at 10 µM; hits give low values;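 also: plate controls were DMSO wells for no effect and camptothecin positive control wells for full effect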
In short: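 Read-out is percentage of cells bearing a perinucleolar compartment, from automated 20x imaging of fixed, Hoechst-stained PC3M PTB-GFP cells. Cells were seeded 4 h, then exposed 16 h to compound (23 nl of library stock) in duplicate plates.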

| SMILES | activity change (PNC), negative = inhibition |
| --- | --- |
| COc1cccc(NC(=S)NCCN2CCOCC2)c1 | active: -91.4% |
| COc1cccc(CNC(=O)C2CCN(C(=O)N(C)C)CC2)c1 | inconclusive: -78.8% |
| COc1cccc(-c2nn(C)c3sc(C(=O)N4CCN(c5ccccc5)CC4)cc23)c1 | inconclusive: -40.8% |
| Cc1cc(=O)n2[nH]c(=O)c(N=Nc3ccccc3)c2[nH]1 | inconclusive: -40.5% |
| CC(=O)Oc1ccc(N2C(=O)CCC2=O)cc1 | inactive: 7.72% |
| COc1cc(/C=N/NS(=O)(=O)c2ccccc2)ccc1OS(=O)(=O)c1ccc(C)cc1 | inconclusive: -32.1% |
| COc1ccc2c(C)cc(SCC#N)nc2c1 | inactive: 34.7% |
| O=C(NC(Cc1ccccc1)C(=O)O)c1ccc(S(=O)(=O)N2CCCC2)cc1 (stereo not given) | inconclusive: -30.9% |
| CCN(c1ccccc1)c1nc2ccsc2c(=O)s1 | inconclusive: -44.4% |
| CCOC(=O)Cn1c(-c2cccnc2Cl)nc2cc(Cl)c(Cl)cc21 | inconclusive: -37% |
| COc1ccccc1N1CCN(S(C)(=O)=O)CC1 | inconclusive: -38.5% |
| O=C(Cn1cnc2ccccc2c1=O)N1CCN(Cc2ccccc2)CC1 | inconclusive: -30.9% |
| CCC1CCCCN1c1cc(C)nc2cc(-c3cccc(C)c3)nn12 (stereo not given) | inconclusive: -66.6% |
| Cc1c(Cl)cccc1-n1c(SCC(=O)NCc2cccs2)nnc1-c1ccncc1 | inconclusive: -55% |
| CC(=O)NC(Cc1ccccc1)C(=O)OCC(=O)c1ccc(Br)cc1 (stereo not given) | inconclusive: -43.2% |
| COc1ccc(C2Cc3ccccc3C(=O)O2)cc1 (stereo not given) | inactive: 32.2% |
| COc1ccc2c(c1)nc(NCCO)n2C | inconclusive: -40.8% |
| CN(C)CCN1C(=O)C(=O)/C(=C(/O)c2ccc(F)cc2)C1c1ccccc1F (stereo not given) | inconclusive: -30.6% |
| O=C1c2oc3ccccc3c(=O)c2C(c2cccc(O)c2)N1CCCN1CCOCC1 (stereo not given) | inactive: -26.2% |
| O=C(N/N=C/c1cccc(F)c1)c1c(O)c2ccccc2[nH]c1=O | inactive: -28.4% |
| COc1ccc(N2CCN(CCNC(=O)C3CCN(S(=O)(=O)c4cccs4)CC3)CC2)cc1 | inconclusive: -43.7% |
| CC(=O)Nc1ccccc1OCC(=O)NCCc1ccc(Cl)cc1Cl | inconclusive: -32.1% |
| O=C(c1ccc(O)cc1)c1ccc(C(=O)O)c(C(=O)O)c1 | inconclusive: -52.1% |

| SMILES | activity change (PNC), negative = inhibition |
| --- | --- |
| CCOC(=O)C(C)(C)C(=O)C(C)(C)C(O)c1ccccn1 (stereo not given) | inconclusive: -35% |
| C=CCn1c(SCC)nc(O)cc1=O | inconclusive: -39.8% |
| CCCCCCn1c(CN2CCN(Cc3ccccc3)CC2)nc2c1c(=O)n(C)c(=O)n2C | inconclusive: -78.6% |
| Cc1ccccc1C(=O)NNC(=O)CSc1nnc(C)n1-c1ccccc1 | inconclusive: -59.3% |
| Cc1ccc(S(=O)(=O)N/N=C/c2ccc(OS(=O)(=O)c3ccc(C)c([N+](=O)[O-])c3)cc2)cc1 | inconclusive: -45.1% |
| Cn1c(=O)c2ccccc2n(Cc2ccccc2F)c1=O | inactive: 33% |
| COc1ccc2c(C(=O)CN(C)C3CCCCC3)c[nH]c2c1 | active: -100% |
| CCOc1ccccc1C(=O)Nc1nnc(COC)s1 | inconclusive: -61.3% |
| COc1ccc(/C=N/NC(=O)Cn2cnc3ccccc3c2=O)cc1 | inactive: -25.1% |
| O=C(O)CCN1C(=O)CC(N2C(=O)/C(=C/c3ccc(Cl)cc3)SC2=S)C1=O (stereo not given) | inactive: -29.9% |
| COc1ccccc1Nc1nc(N)nc(CN2CCN(c3ccccc3F)CC2)n1 | inconclusive: -51.7% |
| Cc1cc(NC(=O)CSc2c(C)[nH]c3ccccc23)no1 | inconclusive: -54.9% |
| O=C(O)C1CCCN(S(=O)(=O)c2ccc(F)cc2)C1 (stereo not given) | inconclusive: -46% |
| CC(=O)c1sc(NC(=O)C2COc3ccccc3O2)nc1C (stereo not given) | inconclusive: -56.1% |
| Cc1onc(-c2ccccc2)c1C(=O)Nc1nc(-c2ccc(F)c(F)c2)cs1 | inconclusive: -46.6% |
| CC1CCCCC1NC(=O)C1CCN(S(=O)(=O)c2ccc3c(c2)CCC(=O)N3)CC1 (stereo not given) | inactive: 19.9% |
| O=C(c1cccc2ccccc12)N1CCN(c2ccccc2F)CC1 | inconclusive: -55.4% |
| Cc1ccc(N(CC(=O)Nc2cccc(C)c2)S(=O)(=O)c2cccc3nonc23)cc1 | inconclusive: -42.6% |
| N#Cc1ccc(-c2ccc(OCC(O)Cn3nnc4ccccc43)cc2)cc1 (stereo not given) | inconclusive: -48.6% |
| CCOC(=O)C1=C(N)Oc2c(oc(CO)cc2=O)C1c1ccc(F)cc1 (stereo not given) | active: -100% |
| CCOC(=O)CSC1=C(C#N)C(c2ccccc2Cl)C(C(=O)OC)C(=O)N1 (stereo not given) | inconclusive: -35.7% |
| CCC(CC)c1nnc(NC(=O)CCCN2C(=O)c3ccccc3C2=O)s1 | inconclusive: -34.9% |

Molecules listed so far that have a cyano group:

| SMILES | activity change (PNC), negative = inhibition |
| --- | --- |
| COc1ccc2c(C)cc(SCC#N)nc2c1 | inactive: 34.7% |
| N#Cc1ccc(-c2ccc(OCC(O)Cn3nnc4ccccc43)cc2)cc1 (stereo not given) | inconclusive: -48.6% |
| CCOC(=O)CSC1=C(C#N)C(c2ccccc2Cl)C(C(=O)OC)C(=O)N1 (stereo not given) | inconclusive: -35.7% |
